Values of other authors as cited in patent publication US20250177378A1, “TREATMENT OF DEPRESSION” (priority 2022, published 2025).
At least one compound was matched to its structure with a doubt left.

Test system: individuals with MDD
Conditions: up to 12 weeks of therapy; cited from earlier work

For `CN(C)CCCC1(c2ccc(F)cc2)OCc2cc(C#N)ccc21` (stereo not shown) [citalopram], the “Individuals with MDD achieving remission” value is given as “about ⅓”.
